The values below come from PMC7286909.

This experiment has as its target T1, GST-SHQ1-α (full length SHQ1) (human) (UniProt Q6PI26).
T1 sequence: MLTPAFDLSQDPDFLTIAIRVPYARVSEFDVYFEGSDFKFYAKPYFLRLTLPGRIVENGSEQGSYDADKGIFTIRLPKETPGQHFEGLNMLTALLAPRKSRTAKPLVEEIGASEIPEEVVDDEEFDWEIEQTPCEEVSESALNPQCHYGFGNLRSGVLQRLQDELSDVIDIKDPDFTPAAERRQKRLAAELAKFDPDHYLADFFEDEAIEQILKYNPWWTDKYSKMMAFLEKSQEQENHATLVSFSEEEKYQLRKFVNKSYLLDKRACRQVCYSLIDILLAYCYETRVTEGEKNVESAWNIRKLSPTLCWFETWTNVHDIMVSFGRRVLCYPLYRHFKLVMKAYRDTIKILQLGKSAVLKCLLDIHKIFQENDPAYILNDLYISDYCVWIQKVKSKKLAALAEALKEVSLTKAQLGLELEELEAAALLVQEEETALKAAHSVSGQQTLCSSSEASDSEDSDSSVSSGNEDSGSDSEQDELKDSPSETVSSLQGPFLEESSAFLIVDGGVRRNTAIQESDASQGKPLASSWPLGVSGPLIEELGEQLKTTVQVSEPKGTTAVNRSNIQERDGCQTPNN
The experiment is described as follows: pull-down; His-GRP78 incubated with GST or GST-SHQ1 (2 μg purified recombinant proteins) for 2 h at 4 °C in 20 mM Tris-HCl pH 8.0, 200 mM NaCl, 0.1% NP-40, 0.3% β-ME; glutathione-Sepharose beads 1 h; western blot; both purified. In general terms: A western blot detects proteins with antibodies after separation by electrophoresis.

No constants are given. Whether binding was seen depends on the method and setting. Binding can be weak; no strength is given. Where a sequence is shown, tags or fusion partners need not be part of it.

Consider His-GRP78, for which the binding result is reported as “binds”.
